Laboratory results published in US20180243273A1, “Composition for Intravesical Administration for Treating Bladder Pain” (priority 2017, published 2018).
Further values from the same series stand in other lists.

Test: Storage of compositions with/without nitrogen-gassing and ascorbic acid, assay and impurities
Format: physicochemical
Conditions: phosphate buffer
Description: A possible beneficial effect of nitrogen-gassing during manufacturing and storage was assessed. Selected compositions were manufactured by dissolution of API via stirring for 24 h and stored after treatment with/without nitrogen at 25° C. or 6° C. for up to 28 days.
The manufactured batches consisted of phosphate buffer and vitamin E TPGS and were compared to compositions containing ascorbic acid 1%, additionally. API was used at 0.01 wt.-%, 0.02 wt.-% or 0.04 w.-%. The compositions were saturated with API, where 10 mg, 20 mg or 40 mg were dissolved in 100 g buffer containing 0.5 wt.-%, wt.-1% or 2 wt.-% vitamin E TPGS, respectively. The compositions were transferred into polystyrene bottles and stored at 25° C. or 6° C. A part of the compositions was treated with nitrogen during manufacturing and gassed with nitrogen prior to sealing (see FIG. 18). The compositions were tested for assay and purity of API after manufacturing, as well as after 7, 14 and 28 days.

[1] = vitamin E TPGS 0.5%, no Asc., N2 +, API 0.01%, 6° C., t = 7 d
[2] = vitamin E TPGS 0.5%, no Asc., N2 +, API 0.01%, 6° C., t = 14 d
[3] = vitamin E TPGS 0.5%, no Asc., N2 +, API 0.01%, 25° C., t = 28 d
[4] = vitamin E TPGS 1%, Asc. 1%, N2 −, API 0.02%, 6° C., t = 7 d
[5] = vitamin E TPGS 1%, Asc. 1%, N2 −, API 0.02%, 6° C., t = 14 d
[6] = vitamin E TPGS 1%, Asc. 1%, N2 −, API 0.02%, 6° C., t = 28 d
[7] = vitamin E TPGS 1%, Asc. 1%, N2 −, API 0.02%, 25° C., t = 7 d
[8] = vitamin E TPGS 1%, Asc. 1%, N2 −, API 0.02%, 25° C., t = 14 d
[9] = vitamin E TPGS 1%, Asc. 1%, N2 −, API 0.02%, 25° C., t = 28 d
[10] = vitamin E TPGS 1%, Asc. 1%, N2 −, API 0.02%, t = 0

CN(C)[C@]1(c2cccc(F)c2)CC[C@]2(CC1)c1[nH]c3ccccc3c1CCN2C(=O)/C=C/c1ccccc1 [API, cis-(E)-4-(3-fluorophenyl)-2′,3′,4′,9′-tetrahydro-N,N-dimethyl-2′-(1-oxo-3-phenyl-2-propenyl)-spiro[cyclohexane-1,1′[1H]-pyrido[3,4-b]indol]-4-amine]
Assay [1]: 49.69 µg/mL | Impurities [1]: 0.73 % (a/a) | Assay [2]: 49.97 µg/mL | Impurities [2]: 0.83 % (a/a) | Assay [3]: 49.80 µg/mL | Impurities [3]: 0.87 % (a/a) | Assay [4]: 112.48 µg/mL | Impurities [4]: 0.67 % (a/a) | Assay [5]: 112.95 µg/mL | Impurities [5]: 0.96 % (a/a) | Assay [6]: 112.97 µg/mL | Impurities [6]: 0.91 % (a/a) | Assay [7]: 112.15 µg/mL | Impurities [7]: 1.01 % (a/a) | Assay [8]: 113.59 µg/mL | Impurities [8]: 1.05 % (a/a) | Assay [9]: 103.54 µg/mL | Impurities [9]: 1.63 % (a/a) | Assay [10]: 110.52 µg/mL | Impurities [10]: 0.55 % (a/a)
